Results from publication PMC7346168.
Residue numbers refer to the chain shown, from its start. Results are given in words; binding and its absence hold for the method and conditions named. In cells and extracts the contact can be indirect. A yes stands for co-enrichment or nearness to the bait. Other partners may have been found. Each block holds one binder with its values, some of them ahead of it.

How the values were obtained:
[1] = molecular target: T1, 2-CysPRXA C54S (pseudo-reduced variant) (Arabidopsis) (UniProt Q96291); test: affinity purification with mass spectrometry; oxidizing: his6-tagged 2-CysPRXA variant (3 mg) on Ni-NTA-agarose pretreated with 1 mM H2O2; leaf extract (50 mg protein) made with 1 mM H2O2; 50 mM HEPES pH 8.0, 1 h, 4 °C; stepwise elution with 1 M NaCl, 10 mM DTT, 250 mM imidazole; hits not found on the column without 2-CysPRX; only the target purified
T1 sequence: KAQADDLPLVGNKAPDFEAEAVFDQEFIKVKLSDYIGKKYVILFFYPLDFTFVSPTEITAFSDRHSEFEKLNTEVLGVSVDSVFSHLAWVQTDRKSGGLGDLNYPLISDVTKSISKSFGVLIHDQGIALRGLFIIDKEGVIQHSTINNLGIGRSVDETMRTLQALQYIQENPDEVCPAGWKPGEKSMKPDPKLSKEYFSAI

[2] = molecular target: T1, 2-CysPRXA C54S (pseudo-reduced variant) (Arabidopsis); test: affinity purification with mass spectrometry; reducing: his6-tagged 2-CysPRXA variant (3 mg) on Ni-NTA-agarose pretreated with 10 mM DTT; leaf extract (50 mg protein) made with 10 mM DTT; 50 mM HEPES pH 8.0, 1 h, 4 °C; stepwise elution with 1 M NaCl, 10 mM DTT, 250 mM imidazole; hits not found on the column without 2-CysPRX; only the target purified
[3] = molecular target: T2, 2-CysPRXA C54D (pseudo-hyperoxidized variant) (Arabidopsis) (UniProt Q96291); test: affinity purification with mass spectrometry; oxidizing: his6-tagged 2-CysPRXA variant (3 mg) on Ni-NTA-agarose pretreated with 1 mM H2O2; leaf extract (50 mg protein) made with 1 mM H2O2; 50 mM HEPES pH 8.0, 1 h, 4 °C; stepwise elution with 1 M NaCl, 10 mM DTT, 250 mM imidazole; hits not found on the column without 2-CysPRX; only the target purified
T2 sequence: T1 sequence with S54D

B1: Beta-amylase 3 (protein, UniProt O23553 50-548)
chain: EMKFTHEKTFTPEGETLEKWEKLHVLSYPHSKNDASVPVFVMLPLDTVTMSGHLNKPRAMNASLMALKGAGVEGVMVDAWWGLVEKDGPMNYNWEGYAELIQMVQKHGLKLQVVMSFHQCGGNVGDSCSIPLPPWVLEEISKNPDLVYTDKSGRRNPEYISLGCDSVPVLRGRTPIQVYSDFMRSFRERFEGYIGGVIAEIQVGMGPCGELRYPSYPESNGTWRFPGIGEFQCYDKYMKSSLQAYAESIGKTNWGTSGPHDAGEYKNLPEDTEFFRRDGTWNSEYGKFFMEWYSGKLLEHGDQLLSSAKGIFQGSGAKLSGKVAGIHWHYNTRSHAAELTAGYYNTRNHDGYLPIAKMFNKHGVVLNFTCMEMKDGEQPEHANCSPEGLVKQVQNATRQAGTELAGENALERYDSSAFGQVVATNRSDSGNGLTAFTYLRMNKRLFEGQNWQQLVEFVKNMKEGGHGRRLSKEDTTGSDLYVGFVKGKIAENVEEAALV
- binding [1]: binds

B4: CHLOROPLAST PROTEIN 12-1 (leaf protein) (protein, UniProt O22914 48-124)
chain: TSEGEISEKVEKSIQEAKETCADDPVSGECVAAWDEVEELSAAASHARDKKKAGGSDPLEEYCNDNPETDECRTYDN
- binding [1]: binds
- binding [3]: binds

Now from value to binder:

- binding [2]: binds
- binding [1]: binds
B2: GLUTAMINE … (protein, UniProt Q43127 46-430)
chain: GFRVLALQSDNSTVNRVETLLNLDTKPYSDRIIAEYIWIGGSGIDLRSKSRTIEKPVEDPSELPKWNYDGSSTGQAPGEDSEVILYPQAIFRDPFRGGNNILVICDTWTPAGEPIPTNKRAKAAEIFSNKKVSGEVPWFGIEQEYTLLQQNVKWPLGWPVGAFPGPQGPYYCGVGADKIWGRDISDAHYKACLYAGINISGTNGEVMPGQWEFQVGPSVGIDAGDHVWCARYLLERITEQAGVVLTLDPKPIEGDWNGAGCHTNYSTKSMREEGGFEVIKKAILNLSLRHKEHISAYGEGNERRLTGKHETASIDQFSWGVANRGCSIRVGRDTEAKGKGYLEDRRPASNMDPYIVTSLLAETTLLWEPTLEAEALAAQKLSLNV

- binding [1]: binds
B3: Isoamylase 3 (protein, UniProt Q9M0S5 71-764)
chain: EEEASTMTETKLFKVSSGEVSPLGVSQVDKGINFALFSQNATSVTLCLSLSQSGKDDTDDDGMIELVLDPSVNKTGDTWHICVEDLPLNNVLYGYRVDGPGEWQQGHRFDRSILLLDPYAKLVKGHSSFGDSSQKFAQFYGTYDFESSPFDWGDDYKFPNIPEKDLVIYEMNVRAFTADESSGMDPAIGGSYLGFIEKIPHLQDLGINAVELLPVFEFDELELQRRSNPRDHMVNTWGYSTVNFFAPMSRYASGEGDPIKASKEFKEMVKALHSAGIEVILDVVYNHTNEADDKYPYTTSFRGIDNKVYYMLDPNNQLLNFSGCGNTLNCNHPVVMELILDSLRHWVTEYHVDGFRFDLASVLCRATDGSPLSAPPLIRAIAKDSVLSRCKIIAEPWDCGGLYLVGKFPNWDRWAEWNGMYRDDVRRFIKGDSGMKGSFATRVSGSSDLYQVNQRKPYHGVNFVIAHDGFTLRDLVSYNFKHNEANGEGGNDGCNDNHSWNCGFEGETGDAHIKSLRTRQMKNFHLALMISQGTPMMLMGDEYGHTRYGNNNSYGHDTSLNNFQWKELDAKKQNHFRFFSEVIKFRHSHHVLKHENFLTQGEITWHEDNWDNSESKFLAFTLHDGIGGRDIYVAFNAHDYFVKALIPQPPPGKQWFRVADTNLESPDDFVREGVAGVADTYNVAPFSSILLQSK
